Patent publication US20260146089A1
These are yes or no findings as the source states them, for the method shown. Some binding calls cover weakened binding; strength is not graded here. For part of these data: Tags and fused reporters may be left off the sequences shown.

Protein sequences, listed by entry. Tags and fused reporters are not part of them. Lines headed by an entry give the natural chain unless they say otherwise; changes in a name come on top. Residues count along the entry.
UniProt P20138, residues 18-364: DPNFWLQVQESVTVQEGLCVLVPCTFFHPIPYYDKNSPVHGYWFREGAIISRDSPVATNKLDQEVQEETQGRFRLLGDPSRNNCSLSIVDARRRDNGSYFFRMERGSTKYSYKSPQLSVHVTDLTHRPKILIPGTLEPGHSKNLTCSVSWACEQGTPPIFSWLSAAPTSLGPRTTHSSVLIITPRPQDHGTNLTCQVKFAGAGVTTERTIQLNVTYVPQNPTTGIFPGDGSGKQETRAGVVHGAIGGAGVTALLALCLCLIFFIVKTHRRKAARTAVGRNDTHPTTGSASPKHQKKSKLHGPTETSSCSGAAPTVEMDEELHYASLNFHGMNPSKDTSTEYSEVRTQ
UniProt P07766: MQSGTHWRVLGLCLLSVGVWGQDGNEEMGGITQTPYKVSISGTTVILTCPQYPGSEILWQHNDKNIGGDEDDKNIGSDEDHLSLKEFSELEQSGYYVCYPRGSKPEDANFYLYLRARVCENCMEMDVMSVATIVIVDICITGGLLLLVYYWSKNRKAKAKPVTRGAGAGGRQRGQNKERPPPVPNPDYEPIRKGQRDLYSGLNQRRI

Legend:
CD33 on U937 cells = CD33 on U937 cells (UniProt P20138); assay: FACS on U937 cells
[1] = target: human CD3ε on the cell surface (Jurkat cells, Th1 cells) (human) (UniProt P07766); assay: FACS on Jurkat cells
[2] = target: human CD3ε on the cell surface (Jurkat cells, Th1 cells) (human) (UniProt P07766); assay: FACS on Jurkat cells, scFv-Fc format

Row | binding (CD33 on U937 cells) | binding [1] | binding [2] | Binder
1 | binds | binds |  | multispecific molecule ("1+1" format) with the anti-CD3 07B09 antibody and the anti-CD33 antibody 3P14 (bispecific antibody, V domains shown) VH 1: EVQLVESGGGLVQPGGSLRLSCAASGFTFSSYWMTWVRQAPGKGLEWVANMRKDGSEKYYVDSVKGRFTISRDNAKNSLYLHMNSLRAEDTAVYYCARERSTGYFDYWGQGTLVIVSS VL 1: DIQMTQSPSTLSASVGDRVTITCRASQRISTWLAWYQQKAGKAPKLLIYKASSLESGVPSRFSGSGSGTEFTLTIRSLEPDDFATYYCQQYISYTWTFGQGTKVEIK VH 2: EVQLLESGGGLVQPGGSLRLSCAASGFTFSTYAMSWVRQAPGKGLEWVSAISGRGGSTYYTDSVKGRFTISRDNSKNTVSLQMNSLRAEDTAVYYCAGRGDYYYYYGMDVWGQGTTVTVSA VL 2: DIVMTQSPLSSPVTLGQPASFSCRSSQSLVYSDGNTYLSWLQQRPGQPPRLLIYKISNRFSGVPDRFSGSGAGTDFTLKISRVEAEDVGVYYCMQSTQFPHTFGQGTKLEIK
2 | binds | binds |  | multispecific molecule ("1+1" format) with the anti-CD3 12C08 antibody and the anti-CD33 antibody 3P14 (bispecific antibody, V domains shown) VH 1: EEQLVESGGGLVQPGGSLRFSCEVSGFTFRSYWMSWVRQAPGKGLEWVANIKEDGSEKYYVDSVKGRFTISRDNAKNSLYLQMNSLRAEDTAVYYCARERREGYFDQWGQGTLVTVSS VL 1: DIQMTQSPSTLSAFVGDRVTITCRASQSIGSWLAWYQQKPGKAPDLLIYKASSLESGVPSRFSGSGSGTEFTLTISSLQPDDFATYYCQQYKSYSWTFGQGTKVEIK VH 2: EVQLLESGGGLVQPGGSLRLSCAASGFTFSTYAMSWVRQAPGKGLEWVSAISGRGGSTYYTDSVKGRFTISRDNSKNTVSLQMNSLRAEDTAVYYCAGRGDYYYYYGMDVWGQGTTVTVSA VL 2: DIVMTQSPLSSPVTLGQPASFSCRSSQSLVYSDGNTYLSWLQQRPGQPPRLLIYKISNRFSGVPDRFSGSGAGTDFTLKISRVEAEDVGVYYCMQSTQFPHTFGQGTKLEIK
3 |  |  | binds | 07B09 scFv-Fc bivalent fusion molecule (Fc fusion) VH: EVQLVESGGGLVQPGGSLRLSCAASGFTFSSYWMTWVRQAPGKGLEWVANMRKDGSEKYYVDSVKGRFTISRDNAKNSLYLHMNSLRAEDTAVYYCARERSTGYFDYWGQGTLVIVSS VL: DIQMTQSPSTLSASVGDRVTITCRASQRISTWLAWYQQKAGKAPKLLIYKASSLESGVPSRFSGSGSGTEFTLTIRSLEPDDFATYYCQQYISYTWTFGQGTKVEIK
4 |  |  | binds | 12C08 scFv-Fc bivalent fusion molecule (Fc fusion) VH: EEQLVESGGGLVQPGGSLRFSCEVSGFTFRSYWMSWVRQAPGKGLEWVANIKEDGSEKYYVDSVKGRFTISRDNAKNSLYLQMNSLRAEDTAVYYCARERREGYFDQWGQGTLVTVSS VL: DIQMTQSPSTLSAFVGDRVTITCRASQSIGSWLAWYQQKPGKAPDLLIYKASSLESGVPSRFSGSGSGTEFTLTISSLQPDDFATYYCQQYKSYSWTFGQGTKVEIK
